Drawing on paper PMC10563248, this text covers binding for two substances.

The chains behind the UniProt entries cited, without tags or fusion partners. Residues count along the entry.
UniProt P62813, residues 28-455: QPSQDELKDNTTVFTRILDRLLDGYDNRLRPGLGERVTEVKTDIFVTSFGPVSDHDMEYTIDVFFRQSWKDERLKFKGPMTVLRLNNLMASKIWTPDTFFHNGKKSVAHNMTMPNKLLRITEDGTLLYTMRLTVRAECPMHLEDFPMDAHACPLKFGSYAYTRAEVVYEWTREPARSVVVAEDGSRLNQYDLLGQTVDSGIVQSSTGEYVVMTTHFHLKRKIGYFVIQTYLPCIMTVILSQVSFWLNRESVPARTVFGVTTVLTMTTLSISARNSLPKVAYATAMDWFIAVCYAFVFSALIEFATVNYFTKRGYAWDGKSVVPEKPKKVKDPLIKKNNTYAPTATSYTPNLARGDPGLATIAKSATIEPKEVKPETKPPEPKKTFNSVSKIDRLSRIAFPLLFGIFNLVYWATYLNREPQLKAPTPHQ
UniProt P97546, residues 29-393: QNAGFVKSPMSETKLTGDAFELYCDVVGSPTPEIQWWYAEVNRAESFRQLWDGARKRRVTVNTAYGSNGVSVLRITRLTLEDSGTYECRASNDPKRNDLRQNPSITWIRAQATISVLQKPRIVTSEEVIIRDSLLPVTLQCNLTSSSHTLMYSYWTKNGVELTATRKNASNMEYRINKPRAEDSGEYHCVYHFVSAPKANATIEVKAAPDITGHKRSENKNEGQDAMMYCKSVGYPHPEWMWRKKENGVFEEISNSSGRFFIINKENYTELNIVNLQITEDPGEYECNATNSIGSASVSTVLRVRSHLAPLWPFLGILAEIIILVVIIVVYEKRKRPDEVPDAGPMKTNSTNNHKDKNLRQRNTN

These are yes or no findings as the source states them, for the method shown. Binding seen in cells or lysates may run through a third protein. Some results given as binding are weak or reduced against the parent protein; the word gives no strength.

Test [1] concerns the target GABAaR subunit α-1 (rat (endogenous in primary hippocampal neurons and hippocampus)) (UniProt P62813). The test can be described thus: co-IP; native total protein of rat hippocampus; anti-GABA A receptor alpha 1 antibody (Abcam ab252430) 4 °C overnight, Protein A/G Plus-Agarose; blot for NPTN; groups: control, PTZ-induced SE, AAV-NC (SE), AAV-OE-NPTN (SE).
For test [2] the target is unchanged. The test can be described thus: co-IP; native total protein of cultured rat primary hippocampal neurons; anti-GABA A receptor alpha 1 antibody (Abcam ab252430) 4 °C overnight, Protein A/G Plus-Agarose; blot for NPTN; groups: control, Mg2+-free extracellular fluid 3 h, LV-NC (Mg2+-free), LV-OE-NPTN (Mg2+-free).

As for “Neuroplastin isoform 2 precursor (NP_062253), overexpressed by adeno-associated virus (AAV-OE-NPTN) (from UniProt P97546-2 29-393)”, the binding result in test [1] was “binds”.
With “Neuroplastin isoform 2 precursor (NP_062253), overexpressed by lentivirus (LV-OE-NPTN) (from UniProt P97546-2 29-393)”, the binding result in test [2] is “binds”.
